Measured values as given in article doi:10.1101/2024.06.28.601102.
Results are given in words; binding and its absence hold for the method and conditions named. Binding seen in cells or lysates may run through a third protein. Some binding calls cover weakened binding; strength is not graded here.

By UniProt entry, the sequences of proteins in these tests, tags left out.
UniProt O00425: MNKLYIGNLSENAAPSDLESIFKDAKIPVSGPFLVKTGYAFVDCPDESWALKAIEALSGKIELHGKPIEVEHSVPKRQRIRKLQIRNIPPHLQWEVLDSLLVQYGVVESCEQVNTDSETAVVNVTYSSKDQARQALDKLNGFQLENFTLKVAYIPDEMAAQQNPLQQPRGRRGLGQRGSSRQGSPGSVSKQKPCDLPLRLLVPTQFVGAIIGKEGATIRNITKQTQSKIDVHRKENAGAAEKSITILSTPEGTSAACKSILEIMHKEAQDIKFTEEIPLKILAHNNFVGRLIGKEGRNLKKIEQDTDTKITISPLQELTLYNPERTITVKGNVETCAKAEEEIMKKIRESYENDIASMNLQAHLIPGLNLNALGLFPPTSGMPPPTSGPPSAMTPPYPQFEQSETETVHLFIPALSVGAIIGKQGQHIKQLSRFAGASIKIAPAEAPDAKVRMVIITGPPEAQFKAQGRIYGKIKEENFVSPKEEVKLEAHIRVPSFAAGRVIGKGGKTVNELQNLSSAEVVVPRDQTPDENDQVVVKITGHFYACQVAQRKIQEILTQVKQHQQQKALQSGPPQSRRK

B1: F-Box Protein 32 (FBXO32) (protein, UniProt Q969P5 1-355)
chain: MPFLGQDWRSPGQNWVKTADGWKRFLDEKSGSFVSDLSSYCNKEVYNKENLFNSLNYDVAAKKRKKDMLNSKTKTQYFHQEKWIYVHKGSTKERHGYCTLGEAFNRLDFSTAILDSRRFNYVVRLLELIAKSQLTSLSGIAQKNFMNILEKVVLKVLEDQQNIRLIRELLQTLYTSLCTLVQRVGKSVLVGNINMWVYRMETILHWQQQLNNIQITRPAFKGLTFTDLPLCLQLNIMQRLSDGRDLVSLGQAAPDLHVLSEDRLLWKKLCQYHFSERQIRKRLILSDKGQLDWKKMYFKLVRCYPRKEQYGDTLQLCKHCHILSWKGTDHPCTANNPESCSVSLSPQDFINLFKF

Tests used:
[1] = biological target: T1, F-Box Protein 32 (FBXO32) (human (endogenous in HGC-27)) (UniProt Q969P5); test: co-IP
T1 sequence: B1 chain

[2] = biological target: Insulin like growth factor II mRNA binding protein 3 (IGF2BP3) (human (endogenous in HGC-27)) (UniProt O00425); test: co-IP

| Molecule | binding [1] | binding [2] |
| --- | --- | --- |
| Insulin like growth factor II mRNA binding protein 3 (IGF2BP3) (from UniProt O00425 1-579) | binds | – |
| B1 | – | binds |
